# Not every detail of the peptide structures is certain; ends, links or a residue may be inferred. *1 amine or outer side, *2 acyl side, *3 side chain or, on linkers, in order; H or OH if unused. Where a SMILES comes first, the peptide text is derived from it. [ ]: non-standard residue; d: D form. The star is where a group is joined. Doxorubicin(3'-N) = COc1cccc2c1C(=O)c1c(O)c3c(c(O)c1C2=O)C[C@@](O)(C(=O)CO)C[C@@H]3O[C@H]1C[C@H](N*)[C@H](O)[C@H](C)O1; PABC = O=C(OCc1ccc(N[*:1])cc1)[*:2]
# System: MDA-MB-231 human breast cancer cell line
# Assay: MTT cytotoxicity assay combined with radiation (4 Gy) and/or caspase inhibitor Z-VAD-FMK
# Assay type: cell-based
# Settings: 4 Gy radiation plus caspase inhibitor Z-VAD-FMK
# Procedure: The degree of cytotoxicity of DEVD-S-DOX was assessed using an in vitro MTT assay and combined radiation therapy in the MDA-MB-231 human breast cancer cell line. The MDA-MB-231 cell line was irradiated with radiation and the expression of caspase-3 was evaluated. Western blot (FIG. 6A) and a cellular caspase-3 activity assay (FIG. 6B) confirmed that the expression of caspase-3 increased over time.
# Next, the cancer cells were cultured in a 96-well microplate at the density of 5×10^4 cell/well in DMEM (10% FBS) medium for 24 hours, and then treated with DEVD-S-DOX or 5 μM Doxorubicin. Some of the test groups were also treated with Z-VAD-FMK, which is a caspase inhibitor. Then cells were irradiated with 4 Gy of radiation, and after 24 and 48 hours, cell viability was assessed against the controls using an MTT assay (FIG. 7). […] This confirmed that caspase-3 was expressed via radiation therapy in the cancer cells, which then activated DEVD-S-DOX and led to a synergistic cytotoxic effect.
smiles,measurement,value
"COc1cccc2c1C(=O)c1c(O)c3c(c(O)c1C2=O)C[C@@](O)(C(=O)CO)C[C@@H]3O[C@H]1C[C@H](NC(=O)OCc2ccc(NC(=O)[C@H](CC(=O)O)NC(=O)[C@@H](NC(=O)[C@H](CCC(=O)O)NC(=O)[C@H](CC(=O)O)NC(=O)CNC(=O)[C@H](CCCCN)NC(C)=O)C(C)C)cc2)[C@H](O)[C@H](C)O1 [DEVD-S-DOX, Ac-KGDEVD-PABC-Doxorubicin] (Ac-KGDEVD[PABC]-{Doxorubicin(3'-N)})",combinatory effect with radiotherapy,not observed

# Reference: patent US20200022997A1, “ORAL ANTICANCER PRODRUGS, THEIR PREPARATION METHODS AND APPLICATIONS” (Seoul National university R&DB Foundation, priority 2018, published 2020)
